Measured values as given in the supplement of paper PMC10849652.
The list shows a part of the results.

Protein sequences, listed by entry. Tags and fused reporters are not part of them. Lines headed by an entry give the natural chain unless they say otherwise; changes in a name come on top.
UniProt Q15008: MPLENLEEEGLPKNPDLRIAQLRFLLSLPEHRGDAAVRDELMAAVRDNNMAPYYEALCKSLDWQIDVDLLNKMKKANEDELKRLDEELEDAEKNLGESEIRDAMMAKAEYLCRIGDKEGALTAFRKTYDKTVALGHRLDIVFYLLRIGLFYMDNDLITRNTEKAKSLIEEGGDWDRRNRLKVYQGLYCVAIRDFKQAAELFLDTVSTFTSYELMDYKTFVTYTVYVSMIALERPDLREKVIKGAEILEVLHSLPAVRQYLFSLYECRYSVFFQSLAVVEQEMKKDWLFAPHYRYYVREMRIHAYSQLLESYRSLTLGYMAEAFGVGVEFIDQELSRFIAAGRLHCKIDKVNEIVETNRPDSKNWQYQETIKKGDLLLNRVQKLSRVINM
UniProt O43242, whole entry, looked up: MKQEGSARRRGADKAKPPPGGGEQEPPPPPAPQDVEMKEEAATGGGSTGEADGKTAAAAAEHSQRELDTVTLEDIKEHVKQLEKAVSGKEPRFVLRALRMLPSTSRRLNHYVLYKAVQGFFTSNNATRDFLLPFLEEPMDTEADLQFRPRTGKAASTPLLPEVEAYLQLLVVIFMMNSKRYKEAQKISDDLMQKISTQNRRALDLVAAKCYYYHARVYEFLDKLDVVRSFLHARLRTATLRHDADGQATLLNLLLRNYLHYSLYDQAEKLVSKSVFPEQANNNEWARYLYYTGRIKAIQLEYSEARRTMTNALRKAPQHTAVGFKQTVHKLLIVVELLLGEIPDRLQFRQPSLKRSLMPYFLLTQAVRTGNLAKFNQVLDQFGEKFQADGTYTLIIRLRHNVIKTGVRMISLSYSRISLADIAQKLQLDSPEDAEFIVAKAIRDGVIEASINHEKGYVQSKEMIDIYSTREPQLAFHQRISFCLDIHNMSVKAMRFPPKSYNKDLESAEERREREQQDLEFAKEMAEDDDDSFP
UniProt O00487, whole entry, looked up: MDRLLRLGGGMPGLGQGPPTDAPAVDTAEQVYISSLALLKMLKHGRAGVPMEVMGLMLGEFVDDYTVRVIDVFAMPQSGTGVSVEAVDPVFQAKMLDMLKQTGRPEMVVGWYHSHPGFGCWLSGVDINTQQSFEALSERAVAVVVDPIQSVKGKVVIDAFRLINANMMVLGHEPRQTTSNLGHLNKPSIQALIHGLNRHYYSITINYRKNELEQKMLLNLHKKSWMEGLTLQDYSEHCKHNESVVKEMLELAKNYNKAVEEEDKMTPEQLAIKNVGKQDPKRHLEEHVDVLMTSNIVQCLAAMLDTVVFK
UniProt P15151: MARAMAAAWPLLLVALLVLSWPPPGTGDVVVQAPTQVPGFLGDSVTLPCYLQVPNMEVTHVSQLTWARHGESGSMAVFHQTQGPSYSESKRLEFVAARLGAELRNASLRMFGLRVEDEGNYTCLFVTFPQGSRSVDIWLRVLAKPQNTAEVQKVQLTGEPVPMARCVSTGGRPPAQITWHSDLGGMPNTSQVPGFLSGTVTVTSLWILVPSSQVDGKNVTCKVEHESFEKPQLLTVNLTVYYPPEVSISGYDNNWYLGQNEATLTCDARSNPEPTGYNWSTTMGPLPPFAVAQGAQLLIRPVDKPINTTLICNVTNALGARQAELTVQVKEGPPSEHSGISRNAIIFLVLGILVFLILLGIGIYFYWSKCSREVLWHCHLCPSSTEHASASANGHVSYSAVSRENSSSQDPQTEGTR
UniProt O95758: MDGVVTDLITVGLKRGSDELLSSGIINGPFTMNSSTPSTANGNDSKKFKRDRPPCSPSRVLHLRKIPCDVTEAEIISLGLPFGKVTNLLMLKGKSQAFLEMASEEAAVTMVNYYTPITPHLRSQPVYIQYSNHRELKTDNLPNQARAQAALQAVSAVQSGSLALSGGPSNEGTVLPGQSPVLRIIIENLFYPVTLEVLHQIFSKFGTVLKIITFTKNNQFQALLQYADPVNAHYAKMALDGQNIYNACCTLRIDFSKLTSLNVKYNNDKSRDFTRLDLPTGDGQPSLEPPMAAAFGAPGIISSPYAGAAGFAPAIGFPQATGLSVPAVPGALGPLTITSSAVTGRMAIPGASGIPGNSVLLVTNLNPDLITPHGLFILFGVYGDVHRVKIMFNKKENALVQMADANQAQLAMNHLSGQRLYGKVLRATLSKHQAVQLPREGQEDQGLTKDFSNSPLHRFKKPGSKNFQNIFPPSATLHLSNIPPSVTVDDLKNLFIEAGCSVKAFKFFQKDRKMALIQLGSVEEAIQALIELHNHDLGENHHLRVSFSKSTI
UniProt P08575: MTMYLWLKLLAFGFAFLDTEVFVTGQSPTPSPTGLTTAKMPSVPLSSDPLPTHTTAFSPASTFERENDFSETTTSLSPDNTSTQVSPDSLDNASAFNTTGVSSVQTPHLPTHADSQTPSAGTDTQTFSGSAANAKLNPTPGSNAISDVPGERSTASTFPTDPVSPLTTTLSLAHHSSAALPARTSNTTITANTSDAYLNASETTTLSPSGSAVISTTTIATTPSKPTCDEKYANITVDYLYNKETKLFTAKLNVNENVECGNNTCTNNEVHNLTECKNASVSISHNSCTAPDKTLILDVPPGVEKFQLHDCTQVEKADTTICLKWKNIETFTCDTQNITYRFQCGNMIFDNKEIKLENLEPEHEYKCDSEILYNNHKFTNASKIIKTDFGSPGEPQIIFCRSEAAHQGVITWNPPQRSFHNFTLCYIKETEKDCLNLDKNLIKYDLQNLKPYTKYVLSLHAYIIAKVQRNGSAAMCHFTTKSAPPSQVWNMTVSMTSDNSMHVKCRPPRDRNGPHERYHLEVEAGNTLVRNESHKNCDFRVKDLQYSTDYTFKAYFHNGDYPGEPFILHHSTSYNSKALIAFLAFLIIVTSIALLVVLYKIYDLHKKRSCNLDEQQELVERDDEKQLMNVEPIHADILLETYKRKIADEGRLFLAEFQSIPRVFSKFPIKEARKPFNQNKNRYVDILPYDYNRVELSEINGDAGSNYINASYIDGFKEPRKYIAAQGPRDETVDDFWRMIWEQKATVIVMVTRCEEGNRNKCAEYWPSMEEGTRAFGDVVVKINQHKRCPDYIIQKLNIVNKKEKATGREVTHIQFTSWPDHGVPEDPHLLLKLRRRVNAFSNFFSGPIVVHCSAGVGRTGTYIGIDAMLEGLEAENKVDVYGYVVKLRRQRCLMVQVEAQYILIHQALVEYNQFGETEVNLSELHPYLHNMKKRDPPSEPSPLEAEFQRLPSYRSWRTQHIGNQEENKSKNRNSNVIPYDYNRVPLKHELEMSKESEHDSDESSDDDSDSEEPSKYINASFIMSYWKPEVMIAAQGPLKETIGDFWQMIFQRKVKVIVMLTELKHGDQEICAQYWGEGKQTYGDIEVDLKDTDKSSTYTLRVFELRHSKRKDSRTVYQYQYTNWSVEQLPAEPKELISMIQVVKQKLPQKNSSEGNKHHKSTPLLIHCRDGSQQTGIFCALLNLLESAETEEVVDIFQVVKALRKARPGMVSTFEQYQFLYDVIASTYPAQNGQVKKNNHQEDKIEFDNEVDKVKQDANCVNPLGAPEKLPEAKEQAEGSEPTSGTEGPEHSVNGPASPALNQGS
UniProt P06454: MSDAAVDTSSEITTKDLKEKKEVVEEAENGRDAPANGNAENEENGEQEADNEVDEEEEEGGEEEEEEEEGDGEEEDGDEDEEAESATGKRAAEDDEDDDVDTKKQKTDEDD
UniProt Q99436: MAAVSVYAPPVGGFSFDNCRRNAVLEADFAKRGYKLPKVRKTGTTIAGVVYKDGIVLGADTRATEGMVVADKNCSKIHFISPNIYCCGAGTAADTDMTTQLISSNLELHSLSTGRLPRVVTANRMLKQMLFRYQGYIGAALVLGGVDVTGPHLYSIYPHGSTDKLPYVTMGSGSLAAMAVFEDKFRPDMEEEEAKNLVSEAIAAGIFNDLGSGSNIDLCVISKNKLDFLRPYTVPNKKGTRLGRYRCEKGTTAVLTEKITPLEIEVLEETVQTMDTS
UniProt P26599: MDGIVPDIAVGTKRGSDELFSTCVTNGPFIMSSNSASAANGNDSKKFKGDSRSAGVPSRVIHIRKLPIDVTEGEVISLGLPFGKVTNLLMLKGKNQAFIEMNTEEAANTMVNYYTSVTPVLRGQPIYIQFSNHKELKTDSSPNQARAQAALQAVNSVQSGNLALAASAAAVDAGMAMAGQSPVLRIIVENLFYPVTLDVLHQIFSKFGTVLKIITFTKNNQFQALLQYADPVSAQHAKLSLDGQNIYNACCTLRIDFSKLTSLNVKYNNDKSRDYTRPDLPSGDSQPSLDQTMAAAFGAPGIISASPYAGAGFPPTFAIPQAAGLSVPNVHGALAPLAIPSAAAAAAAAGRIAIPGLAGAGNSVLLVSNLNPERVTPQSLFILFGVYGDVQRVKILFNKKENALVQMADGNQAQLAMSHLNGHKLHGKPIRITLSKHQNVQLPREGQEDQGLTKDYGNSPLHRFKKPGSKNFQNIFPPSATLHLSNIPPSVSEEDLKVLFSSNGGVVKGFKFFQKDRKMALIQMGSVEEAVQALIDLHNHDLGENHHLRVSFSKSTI
UniProt Q8TB72: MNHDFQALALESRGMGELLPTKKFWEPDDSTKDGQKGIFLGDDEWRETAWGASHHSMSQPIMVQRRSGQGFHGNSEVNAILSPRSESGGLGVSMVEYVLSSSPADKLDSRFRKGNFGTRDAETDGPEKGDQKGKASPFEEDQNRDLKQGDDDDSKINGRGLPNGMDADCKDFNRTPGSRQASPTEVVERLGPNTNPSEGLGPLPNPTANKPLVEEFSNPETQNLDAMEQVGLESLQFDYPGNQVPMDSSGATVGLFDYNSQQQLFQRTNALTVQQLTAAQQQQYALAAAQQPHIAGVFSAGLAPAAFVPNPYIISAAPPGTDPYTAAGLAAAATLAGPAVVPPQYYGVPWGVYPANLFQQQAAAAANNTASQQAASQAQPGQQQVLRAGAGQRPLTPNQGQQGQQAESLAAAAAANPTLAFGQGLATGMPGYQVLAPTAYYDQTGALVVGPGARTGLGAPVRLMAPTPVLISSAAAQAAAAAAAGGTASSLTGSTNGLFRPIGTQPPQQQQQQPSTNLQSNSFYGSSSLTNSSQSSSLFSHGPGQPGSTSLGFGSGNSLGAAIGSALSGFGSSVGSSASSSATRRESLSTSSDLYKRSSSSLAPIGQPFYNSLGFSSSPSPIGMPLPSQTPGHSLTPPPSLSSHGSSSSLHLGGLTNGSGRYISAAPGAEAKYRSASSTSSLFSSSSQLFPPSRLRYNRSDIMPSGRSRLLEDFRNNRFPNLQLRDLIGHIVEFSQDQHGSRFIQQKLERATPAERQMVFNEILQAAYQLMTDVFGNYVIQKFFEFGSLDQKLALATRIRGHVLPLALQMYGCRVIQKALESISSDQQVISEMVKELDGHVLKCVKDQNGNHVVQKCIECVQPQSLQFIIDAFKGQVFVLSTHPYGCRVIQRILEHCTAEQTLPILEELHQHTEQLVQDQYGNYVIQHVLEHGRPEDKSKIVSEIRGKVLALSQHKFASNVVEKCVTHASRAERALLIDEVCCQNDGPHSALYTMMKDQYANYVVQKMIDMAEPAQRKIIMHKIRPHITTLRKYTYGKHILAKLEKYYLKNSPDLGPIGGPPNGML
UniProt P43378: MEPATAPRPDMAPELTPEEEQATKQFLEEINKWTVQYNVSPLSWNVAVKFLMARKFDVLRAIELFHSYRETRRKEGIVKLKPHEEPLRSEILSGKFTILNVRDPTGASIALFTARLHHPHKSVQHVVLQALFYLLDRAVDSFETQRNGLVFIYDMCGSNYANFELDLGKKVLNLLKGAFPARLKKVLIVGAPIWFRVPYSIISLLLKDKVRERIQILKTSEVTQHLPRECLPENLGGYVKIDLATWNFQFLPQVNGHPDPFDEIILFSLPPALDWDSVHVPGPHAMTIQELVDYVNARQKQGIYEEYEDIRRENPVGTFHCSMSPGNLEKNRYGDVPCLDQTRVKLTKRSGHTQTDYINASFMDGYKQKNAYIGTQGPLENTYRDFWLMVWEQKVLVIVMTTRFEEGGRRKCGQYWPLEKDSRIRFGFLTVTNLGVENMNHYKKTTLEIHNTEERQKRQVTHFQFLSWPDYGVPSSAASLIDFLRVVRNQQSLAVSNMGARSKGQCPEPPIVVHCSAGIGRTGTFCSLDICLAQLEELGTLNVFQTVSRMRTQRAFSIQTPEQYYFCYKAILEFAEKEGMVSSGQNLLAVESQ
UniProt P35998: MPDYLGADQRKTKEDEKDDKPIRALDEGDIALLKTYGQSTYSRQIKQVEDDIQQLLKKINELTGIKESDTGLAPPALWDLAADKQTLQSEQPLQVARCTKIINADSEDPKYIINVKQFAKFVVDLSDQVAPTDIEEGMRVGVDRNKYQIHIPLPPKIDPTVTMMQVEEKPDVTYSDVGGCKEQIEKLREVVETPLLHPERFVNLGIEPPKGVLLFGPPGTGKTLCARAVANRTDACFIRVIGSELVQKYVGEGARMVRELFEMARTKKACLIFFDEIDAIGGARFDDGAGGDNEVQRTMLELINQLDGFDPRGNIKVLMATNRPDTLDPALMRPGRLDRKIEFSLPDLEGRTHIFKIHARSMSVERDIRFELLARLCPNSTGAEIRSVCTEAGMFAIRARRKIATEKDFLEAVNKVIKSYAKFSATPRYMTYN

Columns and labels:
Assay in all cases: log2 fold change, soluble protein after heating vs DMSO (PISA); higher = thermal stabilisation; K562 lysate, 10 uM; active = over 0.2 and 3.5 SD of the protein, either way, in both replicates (recomputed)
[1] = compound: C#Cc1cccc(Nc2ncnc3cc(OCCOC)c(OCCOC)cc23)c1 [erlotinib]
In short: (§1)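 Quantification was by TMTpro 16plex LC-MS/MS with equalised channel sums, applied to the supernatant after 21,000xg for 90 min. Samples were crude K562 extract at 1 mg/mL protein in PBS pH 7.4 with 1 mM MgCl2, treated with 10 μM compound for 30 min, heated for 3 min across 48°C-58°C, pooled and brought to 0.5% NP-40 at 4°C. Values are log-two fold changes in thermal stability relative to solvent controls, from duplicates.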

[2] = compound: C/C(=N\NC(=O)C1=CC(=CC=C1)S(=O)(=O)N2CCOCC2)/C3=C(C=CC(=C3)Cl)O
In short: as §1

[3] = compound: C1=CC(=CC=C1C2=NC3=C(N2)C=C(C=C3)C(=O)N)OC4=CC=C(C=C4)Cl
In short: as §1

[4] = compound: C1=CC2=C(C=CC(=C2)/C=C\3/C(=O)NC(=NCC4=CC=CS4)S3)N=C1
In short: as §1

[5] = compound: C1=CC2=NC=CN=C2C=C1/C=C/3\C(=O)NC(=O)S3
In short: as §1

[6] = compound: C1=CC=C(C=C1)C2=NC(=C(N2)C3=CC=NC=C3)C4=CC(=C(C=C4)Cl)O
In short: as §1

[7] = compound: C1=CC=C2C(=C1)C3=NNC4=CC=CC(=C43)C2=O
In short: as §1

[8] = compound: C1CCN(C1)C(=O)NC2=CC=CC(=C2)NC3=NC=C(C(=N3)NCCC4=CN=CN4)Br
In short: as §1

[9] = compound: C1CN(CCC1(CC2=CC=C(C=C2)Cl)N)C3=NC=NC4=C3C=CN4
In short: as §1

[10] = compound: C1COCCN1CCN2C3=CC=CC=C3N=C2NC(=O)C4=CC(=CC=C4)[N+](=O)[O-] [IRAK-1-4 Inhibitor I]
In short: as §1

[11] = compound: C=CC(=O)N1CCC[C@@H](n2nc(-c3ccc(Oc4ccccc4)cc3)c3c(N)ncnc32)C1 [ibrutinib]
In short: as §1

[12] = compound: CC(=O)c1cnc2ccc(-c3cc(Cl)c(O)c(Cl)c3)nc2c1N[C@H]1CC[C@H](CN(C)C)CC1
In short: as §1

[13] = compound: CC(C)(C)Cn1c(N)nc2ccc(-c3[nH]c(C(C)(C)C)nc3-c3ccc(F)cc3)nc21 [ralimetinib]
In short: as §1

[14] = compound: CC(C)(O)CC(=O)NCCn1ccc2ncnc(Nc3ccc(Oc4cccc(C(F)(F)F)c4)c(Cl)c3)c21
In short: as §1

[15] = compound: CC(C)C1=C2N=C(C=C(N2N=C1)NCC3=CC=CC=C3)NCCCCCCN
In short: as §1

[16] = compound: CC1=C(C(CC(=O)N1)C2=CC=C(C=C2)C(F)(F)F)C(=O)NC3=C(C=C4C(=C3)C=NN4)F
In short: as §1

[17] = compound: CC1=C(C2=C(C=C1)C(=O)C3=CC=CC=C3N2CCCN)C
In short: as §1

[18] = compound: CC1=C(C=C(C=C1)NC(=O)C2=CC(=CC=C2)C(C)(C)C#N)NC3=CC4=C(C=C3)N=CN(C4=O)C
In short: as §1

[19] = compound: CC1=C(C=C(C=C1)NC(=O)C2=CC(=CC=C2)N(C)C)NC(=O)C3=CC=C(C=C3)O
In short: as §1

[20] = compound: CC1=CC=C(C=C1)SC2=C3C=C(SC3=CN=C2)C(=O)N
In short: as §1

Measured: log2 fold change

PSMD6 isoform 4 (UniProt Q15008)
inactive: [1] -0.012 | [2] 0.013 | [3] 0.002 | [4] 0.008 | [5] -0.048 | [6] -0.004 | [7] -0.009 | [8] 0.004 | [9] -0.006 | [10] 0.004 | [11] 0.039 | [12] -0.001 | [13] -0.016 | [14] -0.031 | [15] -0.01 | [16] -0.004 | [17] 0.002 | [18] -0.002 | [19] 0.016 | [20] 0.012

PSMD3 (UniProt O43242)
inactive: [1] 0.006 | [2] -0.022 | [3] -0.02 | [4] 0.002 | [5] -0.014 | [6] -0.002 | [7] 0.023 | [8] 0.005 | [9] -0.004 | [10] 0.008 | [11] -0.017 | [12] -0.005 | [13] 0.012 | [14] 0.02 | [15] 0.002 | [16] -0.017 | [17] -0.008 | [18] -0.015 | [19] -0.005 | [20] 0.024

PSMD14 (UniProt O00487)
inactive: [1] 0.011 | [2] 0.065 | [3] -0.013 | [4] 0.027 | [5] 0.008 | [6] 0.016 | [7] 0.024 | [8] -0.004 | [9] -0.012 | [10] -0.044 | [11] 0.007 | [12] -0.014 | [13] -0.051 | [14] 0.001 | [15] 0.003 | [16] 0.005 | [17] -0.007 | [18] -0.027 | [19] -0.003 | [20] 0.017

PRRC2B (UniProt Q5JSZ5)
inactive: [1] -0.034 | [2] 0.005 | [3] 0.054 | [4] -0.027 | [5] -0.05 | [6] -0.019 | [7] -0.059 | [8] -0.075 | [9] -0.012 | [10] 0.054 | [11] 0.083 | [12] 0.027 | [13] -0.019 | [14] -0.012 | [15] -0.017 | [16] 0.03 | [17] 0.034 | [18] -0.189 | [19] -0.021 | [20] -0.011

PVR (UniProt P15151)
inactive: [1] -0.045 | [2] -0.191 | [3] 0.017 | [4] -0.03 | [5] 0.004 | [6] -0.034 | [7] -0.021 | [8] -0.014 | [9] -0.006 | [10] 0.008 | [11] 0.073 | [12] -0.027 | [13] 0.032 | [14] -0.029 | [15] -0.056 | [16] -0.06 | [17] -0.009 | [18] 0.004 | [19] -0.006 | [20] -0.227

PWP2 (UniProt Q15269)
inactive: [1] 0.051 | [2] -0.076 | [3] -0.036 | [4] 0.02 | [5] 0.015 | [6] -0.012 | [7] -0.013 | [8] 0.018 | [9] 0.04 | [10] -0.027 | [11] 0.003 | [12] -0.021 | [13] 0.048 | [14] 0.027 | [15] 0.009 | [16] 0.037 | [17] -0.014 | [18] -0.035 | [19] 0.018 | [20] 0.015

PTBP3 isoform 4 (UniProt O95758)
inactive: [1] 0.027 | [2] 0.044 | [3] -0.01 | [4] -0.02 | [5] 0.051 | [6] -0.001 | [7] 0.03 | [8] -0.025 | [9] 0.016 | [10] 0.015 | [11] -0.019 | [12] -0.024 | [13] 0.01 | [14] 0.02 | [15] 0.024 | [16] -0.035 | [17] 0.064 | [18] 0.011 | [19] 0 | [20] 0.014

PSMG2 (UniProt Q969U7)
inactive: [1] -0.053 | [2] -0.008 | [3] -0.025 | [4] -0.007 | [5] -0.056 | [6] 0.014 | [7] 0.028 | [8] 0.009 | [9] -0.014 | [10] 0.018 | [11] 0.017 | [12] 0.014 | [13] -0.015 | [14] -0.004 | [15] 0.021 | [16] -0.021 | [17] -0.002 | [18] 0.012 | [19] -0.024 | [20] 0.008

PTPRC (UniProt P08575)
inactive: [1] -0.003 | [2] 0.014 | [3] 0.015 | [4] 0 | [5] 0.013 | [6] 0.001 | [7] -0.034 | [8] 0 | [9] 0.023 | [10] -0.003 | [11] 0.009 | [12] -0.004 | [13] 0.01 | [14] -0.008 | [15] -0.01 | [16] 0 | [17] -0.006 | [18] 0 | [19] -0.021 | [20] -0.013

PTMA (UniProt P06454)
inactive: [1] -0.002 | [2] 0.062 | [3] 0.067 | [4] -0.013 | [5] -0.002 | [6] 0.01 | [7] -0.017 | [8] -0.009 | [9] -0.017 | [10] -0.037 | [11] 0.015 | [12] 0.028 | [13] -0.121 | [14] 0.009 | [15] 0.004 | [16] -0.068 | [17] 0.006 | [18] 0.023 | [19] -0.015 | [20] 0.002

PSMB7 (UniProt Q99436)
inactive: [1] -0.006 | [2] 0.021 | [3] 0.038 | [4] -0.013 | [5] 0.005 | [6] 0.007 | [7] -0.019 | [8] 0.023 | [9] 0.028 | [10] -0.003 | [11] -0.006 | [12] -0.013 | [13] -0.009 | [14] -0.024 | [15] -0.018 | [16] -0.007 | [17] -0.004 | [18] 0.031 | [19] -0.019 | [20] -0.004

2 successive records already listed, quoted:
PSMD3 (UniProt O43242)
inactive: [1] 0.006 | [2] -0.022 | [3] -0.02 | [4] 0.002 | [5] -0.014 | [6] -0.002 | [7] 0.023 | [8] 0.005 | [9] -0.004 | [10] 0.008 | [11] -0.017 | [12] -0.005 | [13] 0.012 | [14] 0.02 | [15] 0.002 | [16] -0.017 | [17] -0.008 | [18] -0.015 | [19] -0.005 | [20] 0.024

PSMD14 (UniProt O00487)
inactive: [1] 0.011 | [2] 0.065 | [3] -0.013 | [4] 0.027 | [5] 0.008 | [6] 0.016 | [7] 0.024 | [8] -0.004 | [9] -0.012 | [10] -0.044 | [11] 0.007 | [12] -0.014 | [13] -0.051 | [14] 0.001 | [15] 0.003 | [16] 0.005 | [17] -0.007 | [18] -0.027 | [19] -0.003 | [20] 0.017

Further results.

PTPRA (UniProt P18433)
inactive: [1] -0.017 | [2] 0 | [3] 0.053 | [4] -0.041 | [5] -0.009 | [6] -0.03 | [7] -0.025 | [8] -0.082 | [9] 0.027 | [10] 0.017 | [11] 0.116 | [12] 0.013 | [13] -0.016 | [14] -0.011 | [15] -0.006 | [16] 0.017 | [17] -0.035 | [18] -0.022 | [19] 0.018 | [20] 0.002

PTBP1 (UniProt P26599)
inactive: [1] 0.009 | [2] 0.003 | [3] -0.003 | [4] -0.039 | [5] 0.012 | [6] -0.011 | [7] 0.006 | [8] -0.032 | [9] 0.026 | [10] 0.026 | [11] 0.02 | [12] 0.006 | [13] 0.007 | [14] -0.03 | [15] 0.006 | [16] 0.002 | [17] 0.016 | [18] 0.017 | [19] -0.026 | [20] 0.047

PUM2 (UniProt Q8TB72)
inactive: [1] -0.069 | [2] -0.089 | [3] 0.119 | [4] -0.1 | [5] -0.052 | [6] -0.05 | [7] -0.246 | [8] -0.059 | [9] -0.051 | [10] -0.167 | [11] -0.018 | [12] 0.013 | [13] 0.095 | [14] -0.022 | [15] 0.076 | [16] 0.089 | [17] 0 | [18] -0.186 | [19] 0.029 | [20] 0.025

PTPN9 (UniProt P43378)
inactive: [1] 0.118 | [2] 0.171 | [3] -0.022 | [4] -0.124 | [5] 0.112 | [6] 0.214 | [7] 0.141 | [8] 0.091 | [9] 0.338 | [10] 0.016 | [11] -0.15 | [12] 0.179 | [13] -0.094 | [14] -0.149 | [15] 0 | [16] 0.236 | [17] 0.025 | [18] -0.156 | [19] -0.001 | [20] -0.12

PSMC2 (UniProt P35998)
inactive: [1] -0.007 | [2] -0.008 | [3] -0.028 | [4] 0.006 | [5] -0.014 | [6] 0.001 | [7] -0.022 | [8] 0.019 | [9] -0.006 | [10] 0.007 | [11] -0.009 | [12] -0.009 | [13] 0.029 | [14] -0.008 | [15] 0.011 | [16] -0.036 | [17] 0.014 | [18] -0.015 | [19] 0.007 | [20] 0.005
